No end group written: not given here.
Tests used:
[1] = system: Gram-negative bacterial strains; details: ratio of MHC to GM of MICs, MHC > 250 taken as 500, < 0.98 as 0.49 µg/ml
[2] = system: Gram-positive bacterial strains; details: ratio of MHC to GM of MICs, MHC > 250 taken as 500, < 0.98 as 0.49 µg/ml

Compound | Therapeutic index (TI) (Gr.- strains) [1] | Therapeutic index (TI) (Gr. + strains) [2]
CC[C@H](C)[C@H](NC(=O)CN)C(=O)NCC(=O)N[C@@H](C)C(=O)N[C@H](C(=O)N[C@@H](CC(C)C)C(=O)N[C@@H](CCCCN)C(=O)N[C@H](C(=O)N[C@@H](CC(C)C)C(=O)N[C@H](C(=O)N[C@H](C(=O)NCC(=O)N[C@@H](CC(C)C)C(=O)N1CCC[C@H]1C(=O)N[C@@H](C)C(=O)N[C@@H](CC(C)C)C(=O)N[C@H](C(=O)N[C@@H](CO)C(=O)N[C@@H](Cc1c[nH]c2ccccc12)C(=O)N[C@H](C(=O)N[C@@H](CCCCN)C(=O)N[C@@H](CCCNC(=N)N)C(=O)N[C@@H](CCCCN)C(=O)N[C@@H](CCCNC(=N)N)C(=O)N[C@@H](CCC(N)=O)C(=O)N[C@@H](CCC(N)=O)C(N)=O)[C@@H](C)CC)[C@@H](C)CC)[C@@H](C)O)[C@@H](C)O)C(C)C)C(C)C [Melittin, reference compound] | 0.09 | 0.06
RLFRRVKKVAGK-NH2 [AP12] | 1.92 | 1.45
RLFRRVKKVAGKI-NH2 [AP13] | 2.00 | 1.78
RLFRRVKKVAGKIA-NH2 [AP14] | 2.29 | 1.83
RLFRRVKKVAGKIAK-NH2 [AP15] | 8.00 | 2.51
RLFRRVKKVAGKIAKR-NH2 [AP16] | 9.60 | 5.02
RLFRRVKKVAGKIAKRI-NH2 [AP17] | 21.33 | 14.22
RLFRRVKKVAGKIAKRIW-NH2 [AP18] | 69.8 | 63.98
RLFRRVKKVAGKIAKRIWK-NH2 [AP19] | 69.8 | 85.32
RLFRRVKKVAGKIAKRIWKILRR-NH2 [A3P7] | 0.21 | 0.29

Reference: article PMC9508196 (Scientific Reports, 2022)
